# In PubChem BioAssay AID652054 (National Center for Advancing Translational Sciences (NCATS), 2013):
# By UniProt entry, the sequences of proteins in these tests, tags left out.
# UniProt P35462, whole entry, looked up: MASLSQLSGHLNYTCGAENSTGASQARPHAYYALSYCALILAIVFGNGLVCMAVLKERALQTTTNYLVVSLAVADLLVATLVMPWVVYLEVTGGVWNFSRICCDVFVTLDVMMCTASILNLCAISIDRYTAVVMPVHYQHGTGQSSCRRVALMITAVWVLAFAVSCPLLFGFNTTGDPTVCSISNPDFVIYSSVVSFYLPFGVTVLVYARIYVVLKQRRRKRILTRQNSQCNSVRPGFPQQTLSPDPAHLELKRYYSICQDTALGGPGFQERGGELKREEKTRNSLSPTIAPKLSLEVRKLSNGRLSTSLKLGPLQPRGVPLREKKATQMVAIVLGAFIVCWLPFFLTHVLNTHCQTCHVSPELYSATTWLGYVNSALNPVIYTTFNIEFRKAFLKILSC
# Among all 360,000 compounds or so, about 9,100 (2.5%) were called active. Inconclusive results, whose numbers are uncertain, are shown with a selection of clear calls. Cut-off read from the data, not from the text of the source: active = max response below about -50%; inconclusive = no clear call, values can overlap the other calls; inactive = above that.
# Target: D(3) dopamine receptor (Homo sapiens) (UniProt P35462)
# Assay: qHTS of D3 Dopamine Receptor Antagonist: qHTS
# Conditions: D3R cells, DiscoveRx beta-arrestin luminescence, antagonist mode; hits give low values
# Summary of the method: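 Cells expressing the human receptor were seeded at 1500 cells/well, incubated overnight at 37 degrees C in 5% CO2, then exposed to library compounds with dopamine controls for 90 minutes at 37 degrees C before luminescent detection.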
# % is set by controls: 0 for no effect and ±100 for the full control effect.
row,SMILES,"max response, negative = inhibition"
1,Cc1ccc2c(c1)C1C[N+](C)(CC(=O)Nc3ccccc3Cl)CCC1N2C(=O)c1ccccc1Cl (centres undefined),inconclusive: -35.9%
2,CCN(CC)C(=O)c1sc(NC(=O)Cc2cccs2)c(C#N)c1C,inactive: 17.9%
3,Cc1cccc(Cl)c1OCCN1CCCC1,inconclusive: -47.2%
4,Cc1cc(C)nc(NC(=O)/C=C/c2ccc3c(c2)OCO3)c1,inactive: 3.4%
5,CCC(=O)OCOc1ccc(/C=C2/CCC(CN(C)C)C2=O)cc1 (centres undefined),active: -87.3%
6,O=C(O)c1cccc(NS(=O)(=O)c2ccc3c4c(cccc24)C(=O)N3)c1,inconclusive: -30.3%
7,COc1ccc(C(CNC(=S)NCc2ccccc2)N2CCCC2)cc1 (centres undefined),active: -57.8%
8,CCc1nnc(NS(=O)(=O)c2ccc(NC(=O)/C=C/c3ccccc3Cl)cc2)s1,inactive: 10.1%
9,COc1ccc(C(=O)NCCN2CCN(C(=O)c3ccc(OC)cc3)CC2)cc1,active: -83.5%
10,Cc1ccc2oc(=O)cc(CN3CCN(C/C=C/c4ccccc4)CC3)c2c1,active: -60.2%
11,O=C(COc1ccccc1)Nc1ccccc1N1CCCCC1,inactive: 0%
12,Cc1ccc(C)c(NC(=O)CSc2nnc([C@@H]3CCCN3C(=O)OC(C)(C)C)o2)c1,inconclusive: -49.3%
13,CC(C)C(c1nnnn1CCc1ccccc1)N1CCOCC1 (centres undefined),inconclusive: -44.5%
14,CCCCCCCCCCCCCCCCn1cc[n+](CC(C)=O)c1,inactive: -24.3%
15,O=C(Nc1ccc(N2CCCCC2)c(C(=O)O)c1)c1ccco1,inconclusive: -37.3%
16,COC(=O)C1=C(C)NC(=O)CC1c1cc(Br)ccc1F (centres undefined),inactive: 25.6%
17,NS(=O)(=O)c1ccc(CNc2ncnc3sccc23)cc1,inconclusive: -43.2%
18,Cc1cccc(N2CCN(CC(O)COc3ccc(Cl)cc3)CC2)c1 (centres undefined),active: -80.2%
19,c1ccc(-c2nnc3nc(N4CCCCC4)nc(N4CCCCC4)n23)cc1,inactive: 21.5%
20,O=C(O)C1=C[C@H](c2ccc3c(c2)OCO3)C[C@H](OCCCCO)O1,inactive: 21%
21,Cn1cccc1/C=C1/SC(=S)N(CC(=O)O)C1=O,inconclusive: -47.2%
22,O=C(CNCCC1=CCCCC1)Nc1ccc(N2CCCCCC2)cc1,inconclusive: -44.6%
23,Cc1nn(C)c(Oc2ccccc2)c1[N+](=O)[O-],inconclusive: -38.1%

row,SMILES,"max response, negative = inhibition"
1,O=C1NC(=S)NC1=Cc1ccc2c(c1)CCC2,inconclusive: -30.3%
2,CC(C)CNS(=O)(=O)c1ccc(S(=O)(=O)N2CCN(CCC#N)CC2)cc1,inconclusive: -34%
3,FC(F)(F)c1ccccc1C1=CC(c2ccccc2)n2ncnc2N1 (centres undefined),inconclusive: -32%
4,COc1ccc(Nc2nc(N)nc(CSc3nc(C)cc(C)n3)n2)cc1,active: -61.2%
5,Cc1cc(C)n(-c2ccc(Cl)c(C(=O)O)n2)n1,active: -86.2%
6,Cc1ccc(CN2CCC(CO)(CC3CCCCO3)CC2)o1 (centres undefined),active: -62.9%
7,CSCCC(c1nnnn1C(C)(C)C)N1CCN(C/C=C/c2ccccc2)CC1 (centres undefined),active: -82.1%
8,Cc1ccc(/C=C2/Sc3ccc(C(=O)N4CCN(C)CC4)cc3NC2=O)cc1,inconclusive: -48.1%
9,O=C(COc1cccc(Cl)c1)NCC(c1cccs1)N1CCOCC1 (centres undefined),inactive: 0.322%
10,N#Cc1c(-c2ccco2)cc(-c2ccccn2)nc1N,inconclusive: -39.4%
11,O=C(COc1ccc2ccccc2c1)Nc1ccc(Cc2ccncc2)cc1,inactive: -16.5%
12,CCOC(=O)C1=C(C2=CCCCC2)c2ccc(OC)cc2N(S(=O)(=O)C(F)(F)F)C1C(=O)OCC (centres undefined),inactive: -3.37%
13,COc1ccc(-c2cc(C(=O)N3CCN(c4ccccc4)CC3)no2)cc1,inactive: 15.1%
14,COC(=O)c1c(N2C(=O)[C@H]3[C@@H](C2=O)[C@]2(C(=O)Nc4c2ccc(C)c4C)N2CCC[C@@H]32)sc(C)c1C,inconclusive: -46.5%
15,CC(C)(C)c1ccc(C(O)c2ncc(-c3ccc4ccccc4c3)[nH]2)cc1 (centres undefined),inconclusive: -32.6%
16,C=CCOc1ccc(Cl)cc1-c1noc(-c2csc([C@H]3C[C@H](O)[C@@H](CO)O3)n2)n1,inactive: 0%
17,CCN1CC(C)(C)N(C(=O)c2ccccc2)CC1(C)C,inactive: 14.1%
18,CN(Cc1ccccc1)C(=O)[C@@H]1CCCN1C(=O)[C@@H]1CCCN1C(=O)c1cccc(Cl)c1,inconclusive: -39.3%
19,Cc1ccc2oc(=O)c3cnn(CC(=O)NCCN4CCOCC4)c3c2c1,inconclusive: -34.5%
20,O=C(NCc1cccnc1)c1cc(C2CCCCN2C(=O)c2ccc3c(c2)CCO3)on1 (centres undefined),inconclusive: -34.9%
21,C=CCNC(=S)Nc1sc2c(c1C(N)=O)CCCC2,inconclusive: -38.6%
22,Cc1ccc2nc(-c3cccc(NS(C)(=O)=O)c3)cc(-c3ccccc3)c2c1,inactive: 16.1%
23,C/C(=N/Nc1ccnc2cc(Cl)ccc12)c1ccc(N)cc1,inconclusive: -31.2%

row,SMILES,"max response, negative = inhibition"
1,O=C(Cc1cccs1)N/N=C/C(Br)=C/c1ccccc1,inconclusive: -36.8%
2,CC1(C(=O)NS(=O)(=O)c2cccc(Cl)c2)CCN1C(=O)C1CCCCC1 (centres undefined),inconclusive: -30.3%
3,CN1CCN(C(=O)CCNC(=O)Cn2ccc3ccccc3c2=O)CC1,inconclusive: -37.2%
4,COc1ccc(C(=O)NCc2ccccn2)cc1,active: -65%
5,CCOCc1c(C(=O)Nc2ccccc2N2CCN(C)CC2)oc2ccccc12,inactive: 4.33%
6,CCOc1cc(C(=O)NCc2ccncc2)cc(OCC)c1OCC,active: -100%
7,CC(C#N)Sc1nnc(Nc2ccccc2)s1 (centres undefined),inconclusive: -38.9%
8,C=C(C)CNC(=S)NNC(=O)c1ccco1,inactive: 8.59%
9,Oc1cccnc1CN1CCCCC1,inactive: 11.7%
10,CC(=O)Nc1ccc(C=NNC(=O)CCCC(=O)NN=Cc2ccc(NC(C)=O)cc2)cc1,inconclusive: -30.3%
11,Cc1cccc(C(=O)c2cn[nH]c2-c2ccccc2O)c1,inconclusive: -30.8%
12,COc1ccc(C(CNC(=O)c2cccc(S(=O)(=O)N3CCCc4ccccc43)c2)N(C)C)cc1 (centres undefined),inconclusive: -47.4%
13,NC(=O)c1ccccc1OCC(=O)N1CCCc2ccccc21,inactive: 6.12%
14,COC(=O)N1C(=O)[C@@](c2ccccc2)(C2CCCCC2)N1C(=O)OC,active: -54.2%
15,CCOC(=O)c1sc(=S)n(-c2ccccc2)c1N,inactive: 19.9%
16,COC(=O)C1=C(C)Nc2nc(SCc3ccccc3)[nH]c(=O)c2C1c1cccs1 (centres undefined),inactive: 9.05%
17,C=C1SC(Nc2c(C)cc(C)cc2C)=NC12CCCCC2,active: -54.4%
18,CC(=O)c1ccc(NC(=O)CCNC(=O)c2ccc(Cl)cc2)cc1,inconclusive: -34.5%
19,C=CCc1cc(Cl)ccc1OCCCNC(C)CC (centres undefined),inconclusive: -43.2%
20,NS(=O)(=O)c1ccc(-c2ccc(C=O)o2)cc1,inactive: 5.34%
21,CCC(C)(C)n1nnnc1CN(Cc1cc2cc(OC)c(OC)cc2[nH]c1=O)C1CCCC1,inconclusive: -37.3%
22,Cc1snc(S(=O)(=O)/C(C#N)=N/Nc2cccc(C(F)(F)F)c2)c1C#N,inconclusive: -48%
23,COc1ccccc1Nc1nc(C)c(C(=O)Nc2ccccc2)s1,inactive: -0.57%

# Structural class: the entries above containing a halogen (17)
row,SMILES,"max response, negative = inhibition"
1,Cc1ccc2c(c1)C1C[N+](C)(CC(=O)Nc3ccccc3Cl)CCC1N2C(=O)c1ccccc1Cl (centres undefined),inconclusive: -35.9%
3,Cc1cccc(Cl)c1OCCN1CCCC1,inconclusive: -47.2%
8,CCc1nnc(NS(=O)(=O)c2ccc(NC(=O)/C=C/c3ccccc3Cl)cc2)s1,inactive: 10.1%
16,COC(=O)C1=C(C)NC(=O)CC1c1cc(Br)ccc1F (centres undefined),inactive: 25.6%
18,Cc1cccc(N2CCN(CC(O)COc3ccc(Cl)cc3)CC2)c1 (centres undefined),active: -80.2%
3,FC(F)(F)c1ccccc1C1=CC(c2ccccc2)n2ncnc2N1 (centres undefined),inconclusive: -32%
5,Cc1cc(C)n(-c2ccc(Cl)c(C(=O)O)n2)n1,active: -86.2%
9,O=C(COc1cccc(Cl)c1)NCC(c1cccs1)N1CCOCC1 (centres undefined),inactive: 0.322%
12,CCOC(=O)C1=C(C2=CCCCC2)c2ccc(OC)cc2N(S(=O)(=O)C(F)(F)F)C1C(=O)OCC (centres undefined),inactive: -3.37%
16,C=CCOc1ccc(Cl)cc1-c1noc(-c2csc([C@H]3C[C@H](O)[C@@H](CO)O3)n2)n1,inactive: 0%
18,CN(Cc1ccccc1)C(=O)[C@@H]1CCCN1C(=O)[C@@H]1CCCN1C(=O)c1cccc(Cl)c1,inconclusive: -39.3%
23,C/C(=N/Nc1ccnc2cc(Cl)ccc12)c1ccc(N)cc1,inconclusive: -31.2%
1,O=C(Cc1cccs1)N/N=C/C(Br)=C/c1ccccc1,inconclusive: -36.8%
2,CC1(C(=O)NS(=O)(=O)c2cccc(Cl)c2)CCN1C(=O)C1CCCCC1 (centres undefined),inconclusive: -30.3%
18,CC(=O)c1ccc(NC(=O)CCNC(=O)c2ccc(Cl)cc2)cc1,inconclusive: -34.5%
19,C=CCc1cc(Cl)ccc1OCCCNC(C)CC (centres undefined),inconclusive: -43.2%
22,Cc1snc(S(=O)(=O)/C(C#N)=N/Nc2cccc(C(F)(F)F)c2)c1C#N,inconclusive: -48%

# Structures listed so far that have bromine:
row,SMILES,"max response, negative = inhibition"
16,COC(=O)C1=C(C)NC(=O)CC1c1cc(Br)ccc1F (centres undefined),inactive: 25.6%
1,O=C(Cc1cccs1)N/N=C/C(Br)=C/c1ccccc1,inconclusive: -36.8%

# (further entries)

row,SMILES,"max response, negative = inhibition"
1,CC(C)NC(=O)N(C)C[C@H]1Oc2c(NS(=O)(=O)c3cccs3)cccc2C(=O)N([C@H](C)CO)C[C@@H]1C,inconclusive: -40.5%
2,Cc1ccc(OCCCn2ccnc2)c([N+](=O)[O-])c1,inactive: -9.24%
3,CCOc1ccccc1-n1c(SCC(N)=O)nnc1-c1ccc(O)cc1,inconclusive: -31.2%
4,Cc1cccc(N(C2C=CS(=O)(=O)C2)S(=O)(=O)c2ccccc2)c1 (centres undefined),inactive: -4.56%
5,O=c1nc2ccccc2c2n1CC(CN1CCN(C(c3ccccc3)c3ccccc3)CC1)N2 (centres undefined),active: -77.4%
6,CC(C)NC(=O)c1ccc2sc([C@H]3C[C@H](O)[C@@H](CO)O3)nc2c1,inconclusive: -35.9%
7,CN(Cc1ccccc1)S(=O)(=O)c1ccc(C(=O)Nc2nnc(C3CC3)o2)cc1,active: -62.8%
8,C=CCN(c1ccccc1OC)S(=O)(=O)c1cccc(C(=O)OCC(=O)c2c[nH]c3ccccc23)c1,inactive: 3.97%
9,COc1ccc(F)cc1-c1cc(C(=O)N2CCc3ccccc3C2)[nH]n1,inconclusive: -48.3%
10,Cc1ccc2c(c1)N(CC(=O)NCCCN1CCOCC1)C(=O)c1cccnc1O2,inconclusive: -38%
11,NNC(=O)c1cc(O)c(O)c(O)c1,inactive: -0.946%
12,Cc1cccc(NC(=O)CSc2nnc(CNC(=O)c3ccc(S(=O)(=O)N(C)C)cc3)n2-c2ccc(F)cc2)c1,inconclusive: -34.5%
13,O=C(N/N=C(\c1ccccc1)c1ccccn1)c1cccc([N+](=O)[O-])c1,active: -73.9%
14,O=C(c1ccc2c(=O)n(C3CCCC3)c(=S)[nH]c2c1)N1CCCCCC1,inactive: -7.3%
15,Cc1ccc2cc3cc(C(=O)NC4CC4)oc3nc2c1,inactive: 4.98%
16,COCCC(=O)N1CCC(Oc2ccc(C(=O)NCCC3=CCCCC3)cc2)CC1,inactive: 11.7%
17,COc1ccccc1C(=O)CN1C(=O)NC2(CCCc3ccccc32)C1=O (centres undefined),inconclusive: -34.4%
18,COC(=O)c1cc(NC(=O)Cc2ccccc2[N+](=O)[O-])cc(C(=O)OC)c1,inactive: 19.6%
19,Cc1ccc(S(=O)(=O)N(C(=O)c2ccco2)c2cc3sc(=O)oc3c3ccccc23)cc1,inactive: -3.64%
20,CCCN(Cc1ccc(C)cc1)C(=O)c1ccc(CNS(=O)(=O)c2ccc(C(C)=O)cc2)cc1,inconclusive: -30.6%
